Results from PMC10291571.
Results are given in words; binding and its absence hold for the method and conditions named. In cells and extracts the contact can be indirect. Some results given as binding are weak or reduced against the parent protein; the word gives no strength.

The chains behind the UniProt entries cited, without tags or fusion partners. Residues count along the entry.
UniProt Q16620, residues 32-822: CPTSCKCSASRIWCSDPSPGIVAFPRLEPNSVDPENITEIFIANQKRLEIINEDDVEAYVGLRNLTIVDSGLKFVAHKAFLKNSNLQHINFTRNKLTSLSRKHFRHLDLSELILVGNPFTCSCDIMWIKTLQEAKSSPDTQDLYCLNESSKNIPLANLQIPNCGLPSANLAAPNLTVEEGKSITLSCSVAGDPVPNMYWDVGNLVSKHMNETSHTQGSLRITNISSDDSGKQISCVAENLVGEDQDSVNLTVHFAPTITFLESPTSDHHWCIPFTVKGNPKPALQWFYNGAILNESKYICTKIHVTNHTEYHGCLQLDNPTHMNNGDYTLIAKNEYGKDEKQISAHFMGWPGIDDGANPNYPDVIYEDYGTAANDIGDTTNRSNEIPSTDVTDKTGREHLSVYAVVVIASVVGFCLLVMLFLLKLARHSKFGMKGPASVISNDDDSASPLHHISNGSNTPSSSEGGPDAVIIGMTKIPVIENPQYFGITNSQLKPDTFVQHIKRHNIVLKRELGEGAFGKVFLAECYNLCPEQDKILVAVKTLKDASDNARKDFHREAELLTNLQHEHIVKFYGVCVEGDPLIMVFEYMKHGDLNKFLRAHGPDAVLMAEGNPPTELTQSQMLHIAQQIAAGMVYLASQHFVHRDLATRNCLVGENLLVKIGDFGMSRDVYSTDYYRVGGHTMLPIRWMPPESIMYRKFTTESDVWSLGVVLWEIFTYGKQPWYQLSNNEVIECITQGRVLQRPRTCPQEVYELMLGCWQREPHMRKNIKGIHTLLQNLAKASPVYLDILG

Assays:
[1] = target: tropomyosin-related kinase B (TrkB), full-length human, expressed as differently tagged copies (human) (UniProt Q16620); assay: FRET or BRET; HEK293 cells transfected with TrkB-CFP (donor) and TrkB-YFP (acceptor), treated with 7,8-DHF or bSWNTs for 30 min or left as control; confocal microscopy, pixel-by-pixel apparent FRET efficiency (Eapp)
[2] = target: tropomyosin-related kinase B (TrkB), full-length human, expressed as differently tagged copies (human) (UniProt Q16620); assay: proximity ligation; HEK293 cells transfected with Myc-TrkB, treated with 7,8-DHF or bSWNTs for 30 min or left as control; fixed; two anti-Myc primary antibodies, Duolink PLA probes; confocal microscopy
[3] = target: tropomyosin-related kinase B (TrkB), full-length human, expressed as differently tagged copies (human) (UniProt Q16620); assay: co-IP; HEK293 cells transfected with TrkB-GFP and Myc-TrkB, treated with 7,8-DHF or SWNTs for 30 min; lysis in 50 mM Tris-HCl pH 7.5, 150 mM NaCl, 1 mM EDTA, 1% Triton X-100; GFP-Trap agarose beads, 4 °C, 1 h; blots with anti-Myc and anti-GFP

Measured: binding

tropomyosin-related kinase B (TrkB), full-length human, expressed as differently tagged copies (from UniProt Q16620 32-822) (receptor)
binds: all assays above
